# PMC6829319, “Combination of SAXS and Protein Painting Discloses the Three-Dimensional Organization of the Bacterial Cysteine Synthase Complex, a Potential Target for Enhancers of Antibiotic Action” (International Journal of Molecular Sciences, 2019)
# Results are given in words; binding and its absence hold for the method and conditions named. Some entries that bind do so weakly or less than the wild type.
# T1: O-acetylserine sulfhydrylase isozyme A (CysK) from E. coli (E. coli) (UniProt P0ABK5)
# T1 sequence: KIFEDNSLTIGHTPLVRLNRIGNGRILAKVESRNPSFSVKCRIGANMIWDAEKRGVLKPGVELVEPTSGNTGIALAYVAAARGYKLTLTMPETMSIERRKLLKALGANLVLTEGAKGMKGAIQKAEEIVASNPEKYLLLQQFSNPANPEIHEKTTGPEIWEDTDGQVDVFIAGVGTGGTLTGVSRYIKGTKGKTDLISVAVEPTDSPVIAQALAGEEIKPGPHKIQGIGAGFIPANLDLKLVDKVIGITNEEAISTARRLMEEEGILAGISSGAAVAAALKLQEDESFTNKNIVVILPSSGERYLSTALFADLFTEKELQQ
# B1: C-terminal region of Contact-dependent growth inhibition A protein (CdiA-CT) toxin (domain or fragment, UniProt Q0T963 3016-3242)
# chain: VENNALSLVARGCAVAAPCRTKVAEQLLEIGAKAGMAGLAGAAVKDMADRMTSDELEHLITLQMMGNDEITTKYLSSLHDKYGSGAASNPNIGKDLTDAEKVELGGSGSGTGTPPPSENDPKQQNEKTVDKLNQKQESAIKKIDNTIKNALKDHDIIGTLKDMDGKPVPKENGGYWDHMQEMQNTLRGLRNHADTLKNVNNPEAQAAYGRATDAINKIESALKGYGI
# Molecular target: T1, O-acetylserine sulfhydrylase isozyme A (CysK) from E. coli (E. coli)
# Experiment: protein painting (dye masking, trypsin digestion, MALDI TOF/TOF MS); dyes RBB, CR, AO50 5 mM each in PBS, 15 min at room temperature; complexes pre-incubated 30 min on ice; 5.13 µM CysK alone, 3.33 µM CysK with 5 µM CdiA-CT, 5 µM CysK with 7.5 µM CysE; both purified
binder,measurement,value
B1,binding,binds
